Among the data in PubChem BioAssay AID248 (DTP/NCI, 2004) are T/C and survivor count values, retold here.

The list shows only some results of the screen, not a fair sample: it gathers some chemical classes. Other doses and runs of a compound may be missing. T/C: endpoint of the treated group in % of that of the vehicle group. Some entries give survivors of the animals treated and no T/C: the source files T/C as zero there, which appears to mark a toxic dose or a test without result, not a measured value. Some survivor counts are full or nearly so, which does not show that the dose was tolerated: the source hardly ever lists a survival T/C far under the control, and the zero likely stands for such cases as well. Counts of survivors are from the toxicity check (mostly the fifth day) where no day follows; animals may have died later. Schedules are NCI's codes, taken here to give the interval after Q, in days (D) or hours (H), and the number of doses after X. For survival time, the PubChem record calls one and a half times the control and up active, and a quarter to a half above the control has no call in these data; cut-offs in other NCI protocols can differ. Some T/C values are followed by the survivors on the day toxicity was checked, most often the fifth; where neither a count nor a note follows, no animal had died by that day. Some doses were run more than once; their values stand side by side, smallest first. Some entries show no survivor count and are marked so; the dose need not have been tolerated.

The assay deals with L1210 leukemia ip in BDF1 mice, survival T/C. The experiment in a line: NCI In Vivo Anticancer Drug Screen. Data for tumor model L1210 Leukemia (intraperitoneal) in B6D2F1 (BDF1) mice. Particulars: T/C endpoint: mean survival time, higher T/C = longer survival.
Setting [1] is: dose: 25.0 mg/kg/injection, schedule: Q04DX003 (ip), vehicle: saline.
Where [2] appears, read: dose: 50.0 mg/kg/injection, schedule: Q04DX003 (ip), vehicle: saline.
[3] abbreviates: dose: 80.0 mg/kg/injection, schedule: Q04DX003 (ip), vehicle: Klucel (hydroxypropylcellulose) (HPC).
The mark [4] stands for this setting: dose: 100.0 mg/kg/injection, schedule: Q04DX003 (ip), vehicle: Klucel (hydroxypropylcellulose) (HPC).
The mark [5] stands for this setting: dose: 100.0 mg/kg/injection, schedule: Q04DX003 (ip), vehicle: saline.
Where [6] appears, read: dose: 100.0 mg/kg/injection, schedule: Q01DX009 (ip), vehicle: saline.
Setting [7] is: dose: 200.0 mg/kg/injection, schedule: Q01DX009 (ip), vehicle: saline.

Take `C1C[N-]1.C1C[N-]1.[Cl][Pt+2][Cl]`: the T/C by setting is: (dose: 1.62 mg/kg/injection, schedule: Q01DX009 (ip), vehicle: Klucel (hydroxypropylcellulose) (HPC)) 116 % of control; (dose: 2.5 mg/kg/injection, schedule: Q01DX009 (ip), vehicle: Klucel (hydroxypropylcellulose) (HPC)) 106 % of control; (dose: 2.6 mg/kg/injection, schedule: Q01DX009 (ip), vehicle: Klucel (hydroxypropylcellulose) (HPC)) 102 % of control; (dose: 3.25 mg/kg/injection, schedule: Q01DX009 (ip), vehicle: Klucel (hydroxypropylcellulose) (HPC)) 122 % of control; (dose: 4.0 mg/kg/injection, schedule: Q01DX009 (ip), vehicle: Klucel (hydroxypropylcellulose) (HPC)) 116 % of control; (dose: 5.0 mg/kg/injection, schedule: Q01DX009 (ip), vehicle: Klucel (hydroxypropylcellulose) (HPC)) 100 % of control. Further, the T/C (dose: 5.0 mg/kg/injection, schedule: Q04DX003 (ip), vehicle: Klucel (hydroxypropylcellulose) (HPC)) is 117 and 121 % of control; the T/C (dose: 5.0 mg/kg/injection, schedule: Q04DX003 (ip), vehicle: saline) is 110 % of control; the T/C (dose: 6.0 mg/kg/injection, schedule: Q01DX009 (ip), vehicle: Klucel (hydroxypropylcellulose) (HPC)) was 122 % of control; the T/C (dose: 6.25 mg/kg/injection, schedule: Q04DX003 (ip), vehicle: saline) is 106 % of control; the T/C (dose: 6.5 mg/kg/injection, schedule: Q01DX009 (ip), vehicle: Klucel (hydroxypropylcellulose) (HPC)) is 129 % of control; the T/C (dose: 8.8 mg/kg/injection, schedule: Q01DX009 (ip), vehicle: Klucel (hydroxypropylcellulose) (HPC)) was 151 % of control. In addition, the T/C (dose: 10.0 mg/kg/injection, schedule: Q01DX009 (ip), vehicle: Klucel (hydroxypropylcellulose) (HPC)) is 107 % of control; the T/C (dose: 10.0 mg/kg/injection, schedule: Q04DX003 (ip), vehicle: Klucel (hydroxypropylcellulose) (HPC)) was 109, 114, 131, 151 % of control; the T/C (dose: 10.0 mg/kg/injection, schedule: Q04DX003 (ip), vehicle: saline) is 119 % of control; the T/C (dose: 12.5 mg/kg/injection, schedule: Q04DX003 (ip), vehicle: saline) is 112 % of control; the T/C (dose: 13.0 mg/kg/injection, schedule: Q01DX009 (ip), vehicle: Klucel (hydroxypropylcellulose) (HPC)) is 125 % of control; the T/C (dose: 13.0 mg/kg/injection, schedule: Q04DX003 (ip), vehicle: Klucel (hydroxypropylcellulose) (HPC)) was 109 and 134 % of control. The T/C reads like this: (dose: 13.3 mg/kg/injection, schedule: Q01DX009 (ip), vehicle: Klucel (hydroxypropylcellulose) (HPC)) 127 % of control; (dose: 20.0 mg/kg/injection, schedule: Q01DX009 (ip), vehicle: Klucel (hydroxypropylcellulose) (HPC)) 113, 135, 137 % of control; (dose: 20.0 mg/kg/injection, schedule: Q04DX003 (ip), vehicle: Klucel (hydroxypropylcellulose) (HPC)) 110, 121, 122, 130, 150, 152 % of control; (dose: 20.0 mg/kg/injection, schedule: Q04DX003 (ip), vehicle: saline) 119 % of control; under setting [1], 137 % of control; (dose: 30.0 mg/kg/injection, schedule: Q01DX009 (ip), vehicle: Klucel (hydroxypropylcellulose) (HPC)) 119 and 133 % of control [5 of 6 alive]. The T/C is 124 and 147 % of control (dose: 30.0 mg/kg/injection, schedule: Q04DX003 (ip), vehicle: Klucel (hydroxypropylcellulose) (HPC)); 115, 122, 132, 158 % of control (dose: 40.0 mg/kg/injection, schedule: Q04DX003 (ip), vehicle: Klucel (hydroxypropylcellulose) (HPC)); 115 % of control (dose: 40.0 mg/kg/injection, schedule: Q04DX003 (ip), vehicle: saline); 96 % of control (dose: 45.0 mg/kg/injection, schedule: Q04DX003 (ip), vehicle: Klucel (hydroxypropylcellulose) (HPC)); 93 % of control under setting [2]; 119 % of control (dose: 70.0 mg/kg/injection, schedule: Q04DX003 (ip), vehicle: Klucel (hydroxypropylcellulose) (HPC)). The T/C runs as follows: under setting [3], 101 and 105 % of control; under setting [4], 96 % of control; (dose: 150.0 mg/kg/injection, schedule: Q04DX003 (ip), vehicle: Klucel (hydroxypropylcellulose) (HPC)) 108 % of control [4 of 6 alive]; (dose: 160.0 mg/kg/injection, schedule: Q04DX003 (ip), vehicle: Klucel (hydroxypropylcellulose) (HPC)) 104 % of control. Besides, the survivor count is, setting by setting: (dose: 40.0 mg/kg/injection, schedule: Q01DX009 (ip), vehicle: Klucel (hydroxypropylcellulose) (HPC)) 10 of 10; (dose: 80.0 mg/kg/injection, schedule: Q01DX009 (ip), vehicle: Klucel (hydroxypropylcellulose) (HPC)) 0 of 10; under setting [3], 6 of 6; (dose: 80.0 mg/kg/injection, schedule: Q04DX003 (ip), vehicle: saline) 1 of 6; under setting [5], 6 of 6; (dose: 225.0 mg/kg/injection, schedule: Q04DX003 (ip), vehicle: Klucel (hydroxypropylcellulose) (HPC)) 2 of 6. For the same molecule, the survivor count (dose: 335.0 mg/kg/injection, schedule: Q04DX003 (ip), vehicle: Klucel (hydroxypropylcellulose) (HPC)) is 1 of 6.
Take `CN(C)C(=O)OCC[n+]1cccc(OC(=O)N(C)C)c1`: the survivor count was 0 of 6 under setting [6]; 0 of 6 under setting [7]; 0 of 6 (dose: 400.0 mg/kg/injection, schedule: Q01DX009 (ip), vehicle: saline).
As for `CC(=O)OCN(CN(CN(COC(C)=O)[N+](=O)[O-])[N+](=O)[O-])[N+](=O)[O-]`, the T/C runs as follows: (dose: 100.0 mg/kg/injection, schedule: Q01DX001 (ip), vehicle: carboxymethylcellulose (CMC)) 93 % of control [survivor count not shown]; under setting [4], 107 % of control [survivor count not shown]; (dose: 200.0 mg/kg/injection, schedule: Q01DX001 (ip), vehicle: carboxymethylcellulose (CMC)) 100 % of control [survivor count not shown]; (dose: 200.0 mg/kg/injection, schedule: Q04DX003 (ip), vehicle: Klucel (hydroxypropylcellulose) (HPC)) 111 % of control [survivor count not shown]; (dose: 400.0 mg/kg/injection, schedule: Q01DX001 (ip), vehicle: carboxymethylcellulose (CMC)) 102 % of control [survivor count not shown].
For `O=[N+]([O-])OCC(O[N+](=O)[O-])C(CO[N+](=O)[O-])O[N+](=O)[O-]` (stereo not drawn), the T/C (dose: 50.0 mg/kg/injection, schedule: Q01DX001 (ip), vehicle: saline) was 92 % of control [survivor count not shown]; the T/C (dose: 100.0 mg/kg/injection, schedule: Q01DX001 (ip), vehicle: saline) was 100 % of control [survivor count not shown]; the T/C (dose: 200.0 mg/kg/injection, schedule: Q01DX001 (ip), vehicle: saline) was 96 % of control [survivor count not shown]; the T/C (dose: 400.0 mg/kg/injection, schedule: Q01DX001 (ip), vehicle: saline) was 95 % of control [survivor count not shown].
Consider `CC1C(c2ccccc2)OCCN1C` (stereo not drawn), for which the T/C by setting is: (dose: 12.5 mg/kg/injection, schedule: Q01DX009 (ip), vehicle: saline) 88 % of control; (dose: 25.0 mg/kg/injection, schedule: Q01DX009 (ip), vehicle: saline) 90 % of control; under setting [1], 105 % of control; (dose: 50.0 mg/kg/injection, schedule: Q01DX009 (ip), vehicle: saline) 97 % of control; under setting [2], 113 % of control; under setting [6], 101 % of control [5 of 6 alive]. For the same molecule, the T/C was 103 % of control under setting [5]; 95 % of control [4 of 6 alive] under setting [7]; 97 % of control (dose: 200.0 mg/kg/injection, schedule: Q04DX003 (ip), vehicle: saline). The survivor count (dose: 400.0 mg/kg/injection, schedule: Q04DX003 (ip), vehicle: saline) was 1 of 4.
